From the supplement of paper PMC6078165
± gives the standard deviation of the averaged measurements. Values are relative to the signal before dosing, not to a vehicle control; the signal also falls without drug.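 Fibroblast labels name human fibroblasts: mostly primary ones from tissues such as uterus (C12385, HUF), lung (H6013), bone (Hs27A), adrenal (HADF) and skin (WS1), plus mammary HMF and breast cancer-associated Hs343T. The cancer cells are basal-like or mesenchymal-like triple-negative breast cancer lines. The paper calls a changed response a hit when it shifts by more than 3x the replicate standard deviation. The tissue of the other fibroblasts is not given here.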

Test system: HCC1143
Test: relative JC-1 red fluorescence (viability) vs pre-drug, coculture with fibroblast (fraction); higher = more viable cancer cells
Experimental: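 JC-1 labelled TNBC cells cocultured 1:1 (1,500 cells each) with CellTrace Violet stained primary or stromal fibroblasts in 384-well plates in FluoroBrite medium, treated with one of 42 anticancer drugs at 0.1, 1, 10 or 100 uM. JC-1 red fluorescence (mitochondrial integrity in cancer cells only) was read by plate reader every 8 h for 72 h. Values are normalised to each well's pre-drug value. The stock of one drug was tenfold lower, so its dose labels may be too high.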

CCC1=C[C@@H]2CN(C1)Cc1c([nH]c3ccccc13)[C@@](C(=O)OC)(c1cc3c(cc1OC)N(C)[C@H]1[C@@](O)(C(=O)OC)[C@H](OC(C)=O)[C@]4(CC)C=CCN5CC[C@]31[C@@H]54)C2 [Vinorelbine]
relative JC-1 red fluorescence
Settings | 8 h | 16 h | 24 h | 32 h | 40 h | 48 h | 56 h | 64 h | 72 h
0.1 µM, coculture fibroblast: C12385 | 0.886 ± 0.0025 | 0.7967 ± 0.0038 | 0.7514 ± 0.0011 | 0.704 ± 0.0098 | 0.636 ± 0.011 | 0.595 ± 0.017 | 0.567 ± 0.015 | 0.552 ± 0.021 | 0.548 ± 0.0091
0.1 µM, coculture fibroblast: H6013 | 0.8035 ± 0.0036 | 0.7036 ± 0.003 | 0.672 ± 0.021 | 0.664 ± 0.016 | 0.609 ± 0.017 | 0.615 ± 0.021 | 0.607 ± 0.012 | 0.599 ± 0.0091 | 0.5884 ± 0.0014
0.1 µM, coculture fibroblast: H6019 | 0.829 ± 0.015 | 0.774 ± 0.0055 | 0.7482 ± 0.006 | 0.7049 ± 0.0042 | 0.6761 ± 0.0051 | 0.673 ± 0.011 | 0.639 ± 0.012 | 0.6265 ± 0.001 | 0.6064 ± 0.0047
0.1 µM, coculture fibroblast: H6076 | 0.811 ± 0.034 | 0.794 ± 0.021 | 0.74 ± 0.035 | 0.693 ± 0.036 | 0.658 ± 0.056 | 0.635 ± 0.048 | 0.609 ± 0.054 | 0.592 ± 0.059 | 0.611 ± 0.066
0.1 µM, coculture fibroblast: H6231 | 0.842 ± 0.01 | 0.883 ± 0.095 | 0.769 ± 0.076 | 0.636 ± 0.012 | 0.666 ± 0.063 | 0.633 ± 0.05 | 0.59 ± 0.046 | 0.555 ± 0.044 | 0.53 ± 0.026
0.1 µM, coculture fibroblast: HADF | 0.793 ± 0.023 | 0.715 ± 0.034 | 0.675 ± 0.043 | 0.659 ± 0.046 | 0.555 ± 0.064 | 0.53 ± 0.073 | 0.505 ± 0.076 | 0.493 ± 0.076 | 0.479 ± 0.061
0.1 µM, coculture fibroblast: HCFa | 0.786 ± 0.016 | 0.675 ± 0.0075 | 0.6278 ± 0.0031 | 0.6168 ± 0.003 | 0.5332 ± 0.0028 | 0.5121 ± 0.004 | 0.4756 ± 0.0027 | 0.445 ± 0.0061 | 0.428 ± 0.011
0.1 µM, coculture fibroblast: HCPF | 0.832 ± 0.025 | 0.858 ± 0.037 | 0.793 ± 0.069 | 0.665 ± 0.059 | 0.712 ± 0.097 | 0.676 ± 0.11 | 0.642 ± 0.099 | 0.611 ± 0.1 | 0.593 ± 0.11
0.1 µM, coculture fibroblast: HHSteC | 0.8372 ± 0.0039 | 0.725 ± 0.031 | 0.687 ± 0.034 | 0.663 ± 0.047 | 0.591 ± 0.065 | 0.564 ± 0.076 | 0.53 ± 0.077 | 0.512 ± 0.081 | 0.481 ± 0.072
0.1 µM, coculture fibroblast: HMF | 0.835 ± 0.011 | 0.82 ± 0.014 | 0.75 ± 0.032 | 0.688 ± 0.037 | 0.665 ± 0.043 | 0.628 ± 0.044 | 0.591 ± 0.039 | 0.569 ± 0.043 | 0.554 ± 0.035
0.1 µM, coculture fibroblast: HPFa | 0.8946 ± 0.0062 | 0.798 ± 0.029 | 0.7329 ± 0.0025 | 0.62 ± 0.0068 | 0.5694 ± 0.0016 | 0.54 ± 0.0072 | 0.492 ± 0.008 | 0.467 ± 0.012 | 0.448 ± 0.0092
0.1 µM, coculture fibroblast: HUF | 0.89137 ± 7.7e-05 | 0.801 ± 0.022 | 0.756 ± 0.011 | 0.681 ± 0.01 | 0.624 ± 0.013 | 0.596 ± 0.015 | 0.548 ± 0.021 | 0.524 ± 0.024 | 0.499 ± 0.026
0.1 µM, coculture fibroblast: Hs5 | 0.8713 ± 0.0012 | 0.846 ± 0.05 | 0.788 ± 0.046 | 0.753 ± 0.027 | 0.691 ± 0.038 | 0.664 ± 0.033 | 0.639 ± 0.036 | 0.612 ± 0.039 | 0.609 ± 0.024
0.1 µM, coculture fibroblast: Hs27A | 0.786 ± 0.028 | 0.717 ± 0.042 | 0.653 ± 0.045 | 0.665 ± 0.023 | 0.571 ± 0.036 | 0.569 ± 0.043 | 0.543 ± 0.047 | 0.529 ± 0.048 | 0.483 ± 0.027
0.1 µM, coculture fibroblast: Hs343T | 0.8378 ± 0.0035 | 0.7712 ± 0.0076 | 0.7076 ± 0.0012 | 0.66 ± 0.0072 | 0.615 ± 0.015 | 0.579 ± 0.014 | 0.547 ± 0.0098 | 0.531 ± 0.017 | 0.519 ± 0.022
0.1 µM, coculture fibroblast: WS1 | 0.831 ± 0.011 | 0.735 ± 0.026 | 0.673 ± 0.019 | 0.595 ± 0.022 | 0.536 ± 0.027 | 0.5 ± 0.018 | 0.473 ± 0.011 | 0.455 ± 0.0099 | 0.454 ± 0.0057
1 µM, coculture fibroblast: C12385 | 0.8616 ± 0.0033 | 0.772 ± 0.018 | 0.729 ± 0.026 | 0.684 ± 0.041 | 0.63 ± 0.056 | 0.592 ± 0.06 | 0.571 ± 0.058 | 0.543 ± 0.057 | 0.531 ± 0.061
1 µM, coculture fibroblast: H6013 | 0.788 ± 0.05 | 0.72 ± 0.059 | 0.692 ± 0.078 | 0.685 ± 0.087 | 0.646 ± 0.1 | 0.635 ± 0.11 | 0.627 ± 0.12 | 0.626 ± 0.14 | 0.607 ± 0.15
1 µM, coculture fibroblast: H6019 | 0.849 ± 0.011 | 0.801 ± 0.015 | 0.782 ± 0.009 | 0.735 ± 0.01 | 0.7 ± 0.012 | 0.6928 ± 0.0057 | 0.663 ± 0.011 | 0.642 ± 0.014 | 0.619 ± 0.017
1 µM, coculture fibroblast: H6076 | 0.79717 ± 0.00037 | 0.78 ± 0.014 | 0.7661 ± 0.00091 | 0.748 ± 0.018 | 0.6937 ± 0.0032 | 0.684 ± 0.0072 | 0.669 ± 0.014 | 0.649 ± 0.016 | 0.658 ± 0.021
1 µM, coculture fibroblast: H6231 | 0.8452 ± 0.0052 | 0.851 ± 0.0094 | 0.7704 ± 0.0019 | 0.652 ± 0.0071 | 0.66969 ± 0.00056 | 0.631 ± 0.018 | 0.589 ± 0.016 | 0.551 ± 0.011 | 0.531 ± 0.0095
1 µM, coculture fibroblast: HADF | 0.802 ± 0.031 | 0.723 ± 0.035 | 0.699 ± 0.028 | 0.693 ± 0.018 | 0.617 ± 0.016 | 0.5899 ± 0.00098 | 0.566 ± 0.012 | 0.539 ± 0.0069 | 0.51801 ± 6.2e-05
1 µM, coculture fibroblast: HCFa | 0.8002 ± 0.0067 | 0.699 ± 0.011 | 0.662 ± 0.0093 | 0.674 ± 0.042 | 0.605 ± 0.062 | 0.579 ± 0.077 | 0.554 ± 0.088 | 0.527 ± 0.095 | 0.519 ± 0.11
1 µM, coculture fibroblast: HCPF | 0.837 ± 0.032 | 0.806 ± 0.092 | 0.752 ± 0.069 | 0.665 ± 0.013 | 0.666 ± 0.053 | 0.628 ± 0.049 | 0.599 ± 0.036 | 0.566 ± 0.023 | 0.556 ± 0.014
1 µM, coculture fibroblast: HHSteC | 0.8827 ± 0.0028 | 0.829 ± 0.053 | 0.805 ± 0.09 | 0.776 ± 0.1 | 0.717 ± 0.12 | 0.682 ± 0.14 | 0.643 ± 0.14 | 0.621 ± 0.14 | 0.566 ± 0.16
1 µM, coculture fibroblast: HMF | 0.8213 ± 0.0025 | 0.8542 ± 0.0085 | 0.809 ± 0.015 | 0.738 ± 0.013 | 0.735 ± 0.019 | 0.701 ± 0.023 | 0.664 ± 0.018 | 0.637 ± 0.019 | 0.628 ± 0.027
1 µM, coculture fibroblast: HPFa | 0.919 ± 0.016 | 0.827 ± 0.011 | 0.793 ± 0.023 | 0.701 ± 0.035 | 0.637 ± 0.026 | 0.609 ± 0.018 | 0.568 ± 0.032 | 0.541 ± 0.048 | 0.514 ± 0.049
1 µM, coculture fibroblast: HUF | 0.916 ± 0.062 | 0.845 ± 0.021 | 0.816 ± 0.019 | 0.74 ± 0.019 | 0.698 ± 0.014 | 0.6806 ± 0.004 | 0.631 ± 0.0096 | 0.6048 ± 0.0015 | 0.579 ± 0.00072
1 µM, coculture fibroblast: Hs5 | 0.8483 ± 0.0016 | 0.8349 ± 0.0063 | 0.798 ± 0.024 | 0.778 ± 0.031 | 0.72 ± 0.042 | 0.701 ± 0.07 | 0.684 ± 0.073 | 0.676 ± 0.081 | 0.677 ± 0.095
1 µM, coculture fibroblast: Hs27A | 0.8023 ± 0.0078 | 0.734 ± 0.017 | 0.711 ± 0.025 | 0.727 ± 0.032 | 0.64 ± 0.054 | 0.65 ± 0.056 | 0.626 ± 0.062 | 0.615 ± 0.06 | 0.565 ± 0.062
1 µM, coculture fibroblast: Hs343T | 0.852 ± 0.027 | 0.894 ± 0.027 | 0.859 ± 0.1 | 0.817 ± 0.17 | 0.778 ± 0.15 | 0.76 ± 0.18 | 0.72 ± 0.19 | 0.71 ± 0.19 | 0.699 ± 0.2
1 µM, coculture fibroblast: WS1 | 0.866 ± 0.046 | 0.792 ± 0.059 | 0.773 ± 0.063 | 0.709 ± 0.068 | 0.666 ± 0.074 | 0.648 ± 0.082 | 0.623 ± 0.086 | 0.603 ± 0.092 | 0.591 ± 0.1
